For assay [1], the system named is NF-κB. Briefly: Activation of NF-κB in vivo by agonists. The assay is classed as cell-based. Conditions: agonists including PMA and ionomycin, TNF-α, and LPS.
The subject of assay [2] is IκBα. Kind of assay: Phosphorylation and ubiquitination of 35S-labeled IκBα in HeLa cell cytoplasmic extracts with okadaic acid. Conditions: 10 μM, in the presence of okadaic acid, FIG. 9. The format is biochemical, human.

With `CN[C@@H]1C[C@H]2O[C@@](C)([C@@H]1OC)n1c3ccccc3c3c4c(c5c6ccccc6n2c5c31)C(=O)NC4` [Staurosporine], in assay [1], the “inhibition of the activation of NF-κB in vivo” value is “inhibit the activation of NF-κB in vivo”. Besides, the results for the “inhibition of phosphorylation and ubiquitination of IκBα in HeLa cell extracts” value in assay [2] and in assay [2] (listed as staurosporine) were “Inhibit” and “inhibit”, respectively.

The values above are taken from US7452977B2, “Antibody to a kinase capable of site-specific phosphorylation of IκBα” (Millennium Pharmaceuticals, Inc., priority 1996, dated 2008).
